Measured values reported in PubChem BioAssay AID1347426 (Functional Genomics Laboratory (NCATS/FGL), 2020).
The campaign covered roughly 31,000 sequences. About 1,400 (4.5%) were called active.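 Rule for the calls: active = median seed-adjusted z-score above 1 or below -1; inactive = the rest.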 The list shows a part of the results.

Test: Novel Modifiers of Survival Motor Neuron (SMN) Protein: Gene Identification via Genome-wide siRNA Screen;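 note: luminescence tracks full-length SMN protein made from the SMN2 reporter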
Settings: HEK293T SMN2-luciferase reporter, siRNA knockdown, 72 h; actives lie on both sides
Summary of the method: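 Genome-wide siRNA screen (10418 genes, 3 siRNAs each, 1 pmol per well) by reverse transfection in HEK293T cells stably carrying an SMN2-luciferase reporter; luminescence after 72 hours, normalized to negative-control siRNA, log10-transformed, MAD-scored.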

Row | Sequence | median seed-adjusted z-score
1 | GAAAAACGGUGAGUACCUUTT against ADAMTS5 | inactive: -0.306
2 | GCAAUAUUGCUACUUCGCUTT against HSD17B7 | inactive: 0.0836
3 | CGAGUAUAAUGACGUGGUATT against PRSS16 | inactive: -0.0226
4 | GGCUGAGAGAGUCUACUUUTT against RPIA | inactive: 0.0803
5 | ACAUCAUAGUUGUAGGACATT against IRF2 | inactive: 0.367
6 | GAACGGCCCGGAUCAUUGATT against SEPHS2 | inactive: -0.392
7 | AGACCUUUGUCAUCCCACUTT against PKN3 | inactive: 0.476
8 | CCACGAUGUGGGAUAAUAATT against GALNAC4S-6ST | inactive: 0.218
9 | GUAUCGCAGUUCUUCGAAUTT against ALX1 | inactive: -0.556
10 | CGCCUGGUCUAUGAACUUUTT against SCARF1 | inactive: -0.324
11 | GCGUGGAAGUGAAGCACCATT against CD5L | inactive: 0
12 | CUCUCUAUAUUGAAACCAATT against CHN1 | inactive: 2.1e-05
13 | GGCACGUUCUGGAAACAUATT against GMPS | inactive: -0.485
14 | CGAAUGAAACCAUACAUAUTT against MAS1L | inactive: 0.0585
15 | GGUCGAAACAUUACUAUCATT against XPO4 | inactive: 0.616
16 | CGAGAAUGUCUGGUCUGUATT against FHL3 | inactive: 0.105
17 | GAGUUUUAGUCGCAAUAUATT against SYT14L | inactive: 0.2
18 | GAUGUUGAGUUGAUUGAUATT against CARD8 | inactive: 0.115
19 | UUAUAUAGCUUGAAACAUATT against CRH | inactive: 0.64
20 | GACCAGCUGCGCAAUGUUATT against ATOH1 | inactive: -0.374
21 | AGAGCACAUCAAAUCAGAATT against PAX2 | inactive: 0.341
22 | GGAAGAACGCAGUCGUGAATT against TRIP10 | inactive: -0.261
23 | GCAUCUCUAGAUCCCAUUATT against HLX | inactive: 0.379
24 | AGCCGACAGUCCAUAAGAATT against EPS8L2 | inactive: -0.497
25 | UGCUGGUGGUUGAGCCUGATT against ESRRA | inactive: -0.833
26 | CCAAGGACGGCUGGGUUUATT against WWOX | inactive: -0.583
27 | GGAAUACAGUGACGACAAATT against ING5 | inactive: -0.193

Row | Sequence | median seed-adjusted z-score
28 | GACUGUUACCAUAUCCCAATT against SH3KBP1 | inactive: -0.34
29 | CCAGUUUGUUUACAUGAGATT against SLC13A5 | inactive: 0
30 | CAACAGUACCAAACACGAUTT against PIAS1 | inactive: -0.0367
31 | GAGGUUAUGAUGUGGAAAATT against HBEGF | inactive: -0.903
32 | CGUUGCUAGUGCUCACUUATT against FRAG1 | inactive: -0.554
33 | GGAAUUAUGUAACAAGUGUTT against ZDHHC21 | inactive: 0.216
34 | GGCGGAUCUUUGGACAGAATT against PRTN3 | inactive: -0.49
35 | GCAGAUAUGGUAUUAGACATT against SLC4A7 | inactive: 0
36 | CGAGAGACUUAUCAAAAAUTT against ACOX3 | inactive: 0.658
37 | CAGUUGUACUGGACGGCUATT against PALLD | inactive: -0.307
38 | CUAUGUACCAAGAUUGAUATT against WFDC8 | inactive: 0.0427
39 | CGUACUUUCCUUCAUCGAATT against XPOT | inactive: 0.366
40 | GCUCUUCGCUUUAUCCUCATT against VARS2 | inactive: 0.288
41 | CACCUGUACUUAUCCCGAATT against MEGF10 | inactive: 0.622
42 | CCACAACUGCAACAAUUCATT against GPR108 | inactive: 0.369
43 | GGCCGAGUGGGAUGACUAUTT against PEBP1 | inactive: 0.641
44 | CACAAAAUACGGCAGAGAATT against HCCA2 | inactive: 0.862
45 | CAGAUGAUCUGACCAUUAATT against PSMA7 | inactive: 0.0726
46 | GCUUAGACCUGUCGGAUGATT against PIK3C3 | inactive: 0
47 | GCCUUCAACCGGGAACAGATT against MBD1 | inactive: 0
48 | CAAUAUCUGACAACAACAATT against CLDN10 | inactive: 0.0399
49 | GAUCUAUCUUCAGAACGGATT against SGOL2 | inactive: 0.114
50 | GAAUUGCAAAUCACCAUUUTT against ONECUT1 | inactive: -0.367
51 | UGAAGUACAUGAAUAAACATT against STK32A | inactive: 0.052
52 | GGAGCACAAUAGAUCUGAATT against SEPX1 | inactive: -0.0545
53 | CAGUGAAGCUAGAAUCUCATT against CSNK1A1 | inactive: -0.608
54 | CACUUACCAAGGAUACCAATT against PHC2 | inactive: 0.177

An excerpt of these results, with tabs.
Row	Sequence	median seed-adjusted z-score
28	GACUGUUACCAUAUCCCAATT against SH3KBP1	inactive: -0.34
41	CACCUGUACUUAUCCCGAATT against MEGF10	inactive: 0.622
53	CAGUGAAGCUAGAAUCUCATT against CSNK1A1	inactive: -0.608
